The assay addresses T1, N-terminal GFP-tagged RAG2 C-terminal region (aa351-527) fusion protein (human) (UniProt P55895).
T1 sequence: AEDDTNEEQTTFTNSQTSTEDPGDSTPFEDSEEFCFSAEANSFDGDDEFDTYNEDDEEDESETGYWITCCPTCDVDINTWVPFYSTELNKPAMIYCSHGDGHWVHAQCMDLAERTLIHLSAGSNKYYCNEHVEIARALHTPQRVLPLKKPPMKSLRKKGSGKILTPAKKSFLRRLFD
The assay is described as follows: affinity purification with mass spectrometry.

Sequences of proteins named here, by UniProt entry; tags and fusion partners are left off.
UniProt P23475: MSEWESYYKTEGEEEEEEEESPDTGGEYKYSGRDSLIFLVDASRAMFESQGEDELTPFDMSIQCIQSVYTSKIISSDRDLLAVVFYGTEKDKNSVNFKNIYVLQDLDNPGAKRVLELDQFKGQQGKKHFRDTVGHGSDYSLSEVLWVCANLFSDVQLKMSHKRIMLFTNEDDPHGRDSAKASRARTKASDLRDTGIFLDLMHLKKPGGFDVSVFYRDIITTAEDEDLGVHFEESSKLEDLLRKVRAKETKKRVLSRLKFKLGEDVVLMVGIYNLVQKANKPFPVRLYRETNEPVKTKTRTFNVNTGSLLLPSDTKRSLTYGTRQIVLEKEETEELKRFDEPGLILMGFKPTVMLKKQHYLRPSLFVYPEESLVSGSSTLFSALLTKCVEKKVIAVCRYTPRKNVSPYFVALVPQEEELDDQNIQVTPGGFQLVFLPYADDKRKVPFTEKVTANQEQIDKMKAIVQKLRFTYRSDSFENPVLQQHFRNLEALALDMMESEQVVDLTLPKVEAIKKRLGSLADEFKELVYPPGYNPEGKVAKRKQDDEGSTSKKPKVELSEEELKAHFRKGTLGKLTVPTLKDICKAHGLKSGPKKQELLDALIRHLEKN
UniProt P27641: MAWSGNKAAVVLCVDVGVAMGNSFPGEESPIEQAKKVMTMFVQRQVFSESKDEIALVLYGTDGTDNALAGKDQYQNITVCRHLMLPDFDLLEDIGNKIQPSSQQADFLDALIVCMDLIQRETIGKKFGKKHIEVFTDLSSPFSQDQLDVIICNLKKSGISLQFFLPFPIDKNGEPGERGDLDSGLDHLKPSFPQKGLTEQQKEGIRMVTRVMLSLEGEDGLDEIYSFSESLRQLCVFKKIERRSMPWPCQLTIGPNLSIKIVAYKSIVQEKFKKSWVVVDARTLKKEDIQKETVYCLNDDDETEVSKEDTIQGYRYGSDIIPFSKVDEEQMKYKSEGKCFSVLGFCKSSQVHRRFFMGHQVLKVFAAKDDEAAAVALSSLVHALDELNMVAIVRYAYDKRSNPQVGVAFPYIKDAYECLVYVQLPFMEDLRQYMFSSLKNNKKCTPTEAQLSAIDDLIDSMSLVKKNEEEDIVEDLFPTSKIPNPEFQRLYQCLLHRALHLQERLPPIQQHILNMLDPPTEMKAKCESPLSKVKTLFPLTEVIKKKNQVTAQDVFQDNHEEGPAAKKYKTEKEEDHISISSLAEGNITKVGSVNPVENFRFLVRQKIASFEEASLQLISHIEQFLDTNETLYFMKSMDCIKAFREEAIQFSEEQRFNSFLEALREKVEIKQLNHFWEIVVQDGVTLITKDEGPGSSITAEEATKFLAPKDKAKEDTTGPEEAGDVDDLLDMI

These are yes or no findings as the source states them, for the method shown. In cells and extracts the contact can be indirect. These calls come from enrichment with a bait or labelling near it, and not all partners need be listed. Tags and fused reporters may be left off the sequences shown.

As to “endogenous Ku70 (XRCC6) (from UniProt P23475 1-608)”, the binding result is “binds”.

Consider “endogenous Ku80 (XRCC5) (from UniProt P27641 1-732)”, for which the binding result is on record as “binds”.

(Values after doi:10.1101/2023.12.12.570754.)
